From paper PMC8260731
Results are given in words; binding and its absence hold for the method and conditions named. Binding seen in cells or lysates may run through a third protein. Here binding means that the protein was enriched with, or labelled near, the bait; the list need not be complete. Blank lines part the entries; values can stand above or below the molecule they belong to.

The chains behind the UniProt entries cited, without tags or fusion partners.
UniProt Q01105: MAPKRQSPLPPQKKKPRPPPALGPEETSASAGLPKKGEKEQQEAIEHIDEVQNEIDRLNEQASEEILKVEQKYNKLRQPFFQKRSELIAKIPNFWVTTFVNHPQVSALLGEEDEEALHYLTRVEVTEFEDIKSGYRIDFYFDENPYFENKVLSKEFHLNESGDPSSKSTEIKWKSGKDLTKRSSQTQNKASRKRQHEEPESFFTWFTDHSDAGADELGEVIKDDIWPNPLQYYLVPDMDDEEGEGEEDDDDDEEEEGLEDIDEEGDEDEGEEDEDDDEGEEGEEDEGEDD
UniProt P04406: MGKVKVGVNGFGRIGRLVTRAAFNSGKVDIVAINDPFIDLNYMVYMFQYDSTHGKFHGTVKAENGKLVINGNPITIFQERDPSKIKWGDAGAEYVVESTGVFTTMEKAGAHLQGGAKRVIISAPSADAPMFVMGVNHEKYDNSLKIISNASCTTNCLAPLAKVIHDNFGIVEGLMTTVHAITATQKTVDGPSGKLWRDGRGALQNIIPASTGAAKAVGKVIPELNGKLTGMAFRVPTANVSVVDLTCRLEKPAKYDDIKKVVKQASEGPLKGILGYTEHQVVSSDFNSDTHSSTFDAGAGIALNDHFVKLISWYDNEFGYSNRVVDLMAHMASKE

Target: GFP-SET (UniProt Q01105)
Assay: affinity purification with mass spectrometry; immunoprecipitation of GFP-SET or GFP with the anti-GFP antibody, mass spectrometry of the immunoprecipitated proteins

binding: binds
Molecule: glyceraldehyde-3-phosphate dehydrogenase (from UniProt P04406 1-335)

binding: binds
B1: SAP18 (protein, UniProt O00422 1-153)
chain: MAVESRVTQEEIKKEPEKPIDREKTCPLLLRVFTTNNGRHHRMDEFSRGNVPSSELQIYTWMDATLKELTSLVKEVYPEARKKGTHFNFAIVFTDVKRPGYRVKEIGSTMSGRKGTDDSMTLQSQKFQIGDYLDIAITPPNRAPPPSGRMRPY
